23 compounds from PubChem BioAssay AID248 (DTP/NCI, 2004) can be followed below.

The list shows only some results of the screen, not a fair sample: it gathers tests that were run many times, whatever their T/C, doses with no T/C, and many T/C values between a quarter and a half above the control. Other doses and runs of a compound stand elsewhere. T/C gives the treated animals as a percentage of the vehicle group. Some doses have a count of surviving animals in place of a T/C: the source files T/C as zero there, which appears to mark a toxic dose or a test without result, not a measured value. Some survivor counts are full or nearly so, which does not show that the dose was tolerated: survival well below the control is almost never listed, so the zero probably covers shortened survival too. Survivors were counted at the toxicity check, usually on the fifth day, unless a day is given; later deaths do not show. Schedule codes are those of the source, taken here to give the interval after Q, in days (D) or hours (H), and the number of doses after X. Some molecules as drawn cover several salts, stereoisomers or complexes of the source; a dose is that of the sample tested. For survival time, the PubChem record calls one and a half times the control and up active, and a quarter to a half above the control has no call in these data; cut-offs in other NCI protocols can differ. Some T/C values carry the count of animals alive at the toxicity check (mostly the fifth day); without a count, all were alive then.

The assay has as its system L1210 leukemia ip in BDF1 mice, survival T/C. The assay can be described thus: NCI In Vivo Anticancer Drug Screen. Data for tumor model L1210 Leukemia (intraperitoneal) in B6D2F1 (BDF1) mice. The settings on record: T/C endpoint: mean survival time, higher T/C = longer survival.
The mark [1] stands for this setting: dose: 100.0 mg/kg/injection, schedule: Q01DX001 (ip), vehicle: saline.
[2] abbreviates: dose: 200.0 mg/kg/injection, schedule: Q01DX001 (ip), vehicle: saline.
The mark [3] stands for this setting: dose: 400.0 mg/kg/injection, schedule: Q01DX001 (ip), vehicle: saline.
Setting [4] is: dose: 200.0 mg/kg/injection, schedule: Q04DX003 (ip), vehicle: saline.
The mark [5] stands for this setting: dose: 400.0 mg/kg/injection, schedule: Q04DX003 (ip), vehicle: saline.
Where [6] appears, read: dose: 400.0 mg/kg/injection, schedule: Q04DX003 (ip), vehicle: Klucel (hydroxypropylcellulose) (HPC).
Setting [7] is: dose: 400.0 mg/kg/injection, schedule: Q04DX003 (ip), vehicle: saline with Tween-80.
Where [8] appears, read: dose: 200.0 mg/kg/injection, schedule: Q01DX009 (ip), vehicle: other.
[9] abbreviates: dose: 200.0 mg/kg/injection, schedule: Q04DX003 (ip), vehicle: saline with Tween-80.
The mark [10] stands for this setting: dose: 75.0 mg/kg/injection, schedule: Q04DX003 (ip), vehicle: saline with Tween-80.

`C[CH2][Sb]([Cl])([CH2]C)([CH2]C)[O][Sb]([Cl])([CH2]C)([CH2]C)[CH2]C`: the survivor count reads like this: under setting [1], 0 of 6; under setting [2], 0 of 6; under setting [3], 0 of 6.
As for `Cc1cc(C(=O)NNCc2ccccc2)no1`, the survivor count (dose: 100.0 mg/kg/injection, schedule: Q01DX009 (ip), vehicle: Klucel (hydroxypropylcellulose) (HPC)) is 6 of 6 and the survivor count (dose: 200.0 mg/kg/injection, schedule: Q01DX009 (ip), vehicle: Klucel (hydroxypropylcellulose) (HPC)) is given as 2 of 6.
For `CCOC(=O)N1c2ccccc2C=CC1OCC` (configuration not stated), the survivor count by setting is: (dose: 100.0 mg/kg/injection, schedule: Q04DX003 (ip), vehicle: saline) 3 of 6; under setting [4], 0 of 6; under setting [5], 0 of 6.
`CC[N+](C)(CC)CCOC(=O)C1C2CC3OC(=O)C1C3C2` (configuration not stated): the survivor count under setting [5] is recorded as 1 of 3.
For `CCCCCCCCC(=O)N(C(C)C)C(C)C`, for the setting “dose: 400.0 mg/kg/injection, schedule: Q01DX009 (ip), vehicle: carboxymethylcellulose (CMC)”, the survivor count is 2 of 3.
For `O=c1[nH]c(=O)c2cccnc2[nH]1`, the survivor count is on record as 2 of 6 (dose: 200.0 mg/kg/injection, schedule: Q01DX009 (ip), vehicle: saline) and 2 of 6 under setting [3].
On to `CCCNS(=O)(=O)c1ccc(Cl)c([N+](=O)[O-])c1`, for which the survivor count under setting [6] was 3 of 6.
In the case of `COC(=O)C1OCOC2C(CO)OCOC12` (configuration not stated), the survivor count under setting [7] was 6 of 6.
In the case of `COC(=O)/C=C(\C)Nc1ccc(NC(C)=O)cc1`, the survivor count (dose: 400.0 mg/kg/injection, schedule: Q04DX003 (ip), vehicle: acetone) is 6 of 6.
With `Nc1ncnc2c1ncn2[C@H]1CC[C@@H](CO)C1`, the survivor count under setting [3] was 2 of 4.
For `O=C1Oc2ccccc2C1=O`, the survivor count is 2 of 6 (dose: 300.0 mg/kg/injection, schedule: Q01DX001 (ip), vehicle: other) and 6 of 6 under setting [5].
`NC(=S)N/N=C\c1ncnc2nc[nH]c12`: the T/C is 128 % of control (dose: 1.25 mg/kg/injection, schedule: Q01DX009 (ip), vehicle: carboxymethylcellulose (CMC)); 132 % of control (dose: 2.0 mg/kg/injection, schedule: Q03HX024 (ip), vehicle: saline); 125 % of control (dose: 2.5 mg/kg/injection, schedule: Q01DX009 (ip), vehicle: carboxymethylcellulose (CMC)); 142 % of control (dose: 4.0 mg/kg/injection, schedule: Q03HX024 (ip), vehicle: saline); 126 % of control (dose: 5.0 mg/kg/injection, schedule: Q01DX009 (ip), vehicle: carboxymethylcellulose (CMC)); 127 % of control (dose: 5.0 mg/kg/injection, schedule: Q01DX009 (ip), vehicle: saline). Also, the T/C is, setting by setting: (dose: 7.0 mg/kg/injection, schedule: Q01DX009 (ip), vehicle: carboxymethylcellulose (CMC)) 128 % of control; (dose: 7.0 mg/kg/injection, schedule: Q01DX009 (ip), vehicle: saline) 127 % of control; (dose: 10.0 mg/kg/injection, schedule: Q01DX009 (ip), vehicle: carboxymethylcellulose (CMC)) 128 % of control; (dose: 10.0 mg/kg/injection, schedule: Q01DX009 (ip), vehicle: saline) 136 % of control; (dose: 15.0 mg/kg/injection, schedule: Q01DX009 (ip), vehicle: carboxymethylcellulose (CMC)) 134 % of control; (dose: 15.0 mg/kg/injection, schedule: Q01DX009 (ip), vehicle: saline) 127 % of control. For the same compound, the survivor count is, setting by setting: (dose: 30.0 mg/kg/injection, schedule: Q01DX009 (ip), vehicle: carboxymethylcellulose (CMC)) 1 of 6; (dose: 40.0 mg/kg/injection, schedule: Q01DX001 (ip), vehicle: saline) 2 of 6; (dose: 60.0 mg/kg/injection, schedule: Q01DX009 (ip), vehicle: carboxymethylcellulose (CMC)) 0 of 6; (dose: 80.0 mg/kg/injection, schedule: Q01DX001 (ip), vehicle: saline) 0 of 6; under setting [1], 0 of 6; under setting [2], 0 of 6. Moreover, the survivor count under setting [3] is 0 of 6.
`O=C1c2ccccc2C(Br)(c2ccccc2)C1Br` (configuration not stated): the survivor count runs as follows: (dose: 50.0 mg/kg/injection, schedule: Q01DX009 (ip), vehicle: other) 3 of 6; (dose: 100.0 mg/kg/injection, schedule: Q01DX009 (ip), vehicle: other) 2 of 6; under setting [8], 1 of 6.
With `CC(Br)C1=CC(c2ccccc2)(c2ccccc2)c2ccccc21` (configuration not stated), the survivor count under setting [9] was 6 of 6.
`CC(=O)Nc1nncs1`: under “dose: 124.0 mg/kg/injection, schedule: Q01DX015 (ip), vehicle: carboxymethylcellulose (CMC)”, the T/C was 131 % of control [4 of 6 alive].
Turning to `CC(C)=CCC/C(C)=C\CN=C1C=CC(=O)O1`, the survivor count reads like this: (dose: 100.0 mg/kg/injection, schedule: Q01DX009 (ip), vehicle: saline + alcohol) 1 of 6; under setting [4], 1 of 6; under setting [5], 0 of 6.
For the compound `Cc1ccc2c(c1)C(=O)CCC2`, the T/C under setting [1] is 125 % of control.
As to `CCCCCCC(CC)NCCO` (configuration not stated), the survivor count reads like this: (dose: 150.0 mg/kg/injection, schedule: Q01DX001 (ip), vehicle: saline) 0 of 6; (dose: 300.0 mg/kg/injection, schedule: Q01DX001 (ip), vehicle: saline) 0 of 6.
For the compound `CCOC(=O)/C=C1\NC(=O)N(CCCN2C(=O)N/C(=C\C(=O)OCC)C2=O)C1=O`, the survivor count reads like this: (dose: 50.0 mg/kg/injection, schedule: Q01DX009 (ip), vehicle: saline with Tween-80) 3 of 3; (dose: 200.0 mg/kg/injection, schedule: Q01DX009 (ip), vehicle: saline with Tween-80) 3 of 3.
In the case of `Cc1ccc(NC(=O)Oc2ccc(F)cc2)cc1NC(=O)Oc1ccc(F)cc1`, the survivor count reads like this: under setting [8], 4 of 6; (dose: 400.0 mg/kg/injection, schedule: Q01DX009 (ip), vehicle: other) 0 of 6.
Take `Cn1cc(Br)c2ccccc2c1=O`: the survivor count by setting is: (dose: 200.0 mg/kg/injection, schedule: Q04DX003 (ip), vehicle: Klucel (hydroxypropylcellulose) (HPC)) 2 of 6; under setting [6], 0 of 6.
For the compound `CC(=O)OCCN1CCN(CCCN2c3ccccc3Sc3ccc(C(F)(F)F)cc32)CC1`, the T/C is, setting by setting: (dose: 14.5 mg/kg/injection, schedule: Q04DX003 (ip), vehicle: saline with Tween-80) 131 % of control; (dose: 33.0 mg/kg/injection, schedule: Q04DX003 (ip), vehicle: saline with Tween-80) 145 % of control; (dose: 33.4 mg/kg/injection, schedule: Q04DX003 (ip), vehicle: saline with Tween-80) 142 % of control; (dose: 50.0 mg/kg/injection, schedule: Q04DX003 (ip), vehicle: saline with Tween-80, evaluated on day 20) 131 % of control; (dose: 50.0 mg/kg/injection, schedule: Q04DX003 (ip), vehicle: saline with Tween-80, evaluated on day 30) 149 % of control; (dose: 50.0 mg/kg/injection, schedule: Q04DX003 (ip), vehicle: saline) 129 % of control. For the same compound, the T/C under setting [10] was 131 % of control. The survivor count (dose: 22.0 mg/kg/injection, schedule: Q04DX003 (ip), vehicle: saline sonified) was 3 of 6; the survivor count (dose: 50.0 mg/kg/injection, schedule: Q04DX003 (ip), vehicle: saline sonified) is listed as 3 of 6; the survivor count (dose: 75.0 mg/kg/injection, schedule: Q04DX003 (ip), vehicle: saline sonified) is on record as 4 of 6; the survivor count under setting [10] was 4 of 6; the survivor count (dose: 100.0 mg/kg/injection, schedule: Q04DX003 (ip), vehicle: saline with Tween-80) is recorded as 6 of 6; the survivor count under setting [2] is reported as 2 of 6. For the same compound, the survivor count reads like this: under setting [9], 6 of 6; under setting [3], 0 of 6; under setting [7], 0 of 6.
For the compound `CN(CCS)Cc1ccccc1`, the survivor count runs as follows: under setting [9], 2 of 6; under setting [7], 0 of 6.
